The record followed here is paper PMC7819943, “Rice protein-binding microarrays: a tool to detect cis-acting elements near promoter regions in rice”.

The chains behind the UniProt entries cited, without tags or fusion partners.
UniProt Q0JBA9, entry or part of it: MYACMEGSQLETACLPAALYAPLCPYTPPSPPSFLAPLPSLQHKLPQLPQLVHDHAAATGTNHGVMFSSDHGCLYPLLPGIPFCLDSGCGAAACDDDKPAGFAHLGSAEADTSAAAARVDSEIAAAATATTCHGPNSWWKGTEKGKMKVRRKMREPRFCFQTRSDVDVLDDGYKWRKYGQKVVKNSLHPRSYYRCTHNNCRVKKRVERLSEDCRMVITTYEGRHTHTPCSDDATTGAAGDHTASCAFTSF

This is one part of the list.

This test deals with OsWRKY34 (Oryza sativa, UniProt Q0JBA9 1-250). Nature of the test: protein-binding microarray (RPBM); PBS, 2% BSA, 51.3 ng/ul salmon testes DNA, 50 uM zinc acetate, 200 nM TF, 25 C, 1 h; high values mean tight binding. As to conditions: protein: recombinant; tags: N-terminal polyhistidine and DsRed monomer fusion (pET32a); label: CyDye5-dUTP incorporated in the synthesized complementary strand; 3' TTTTT single-stranded linker to array surface; dsDNA, one strand shown. Summed up:
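In PBS with 2% BSA, salmon testes DNA and 50 µM zinc acetate, 200 nM protein was incubated on a custom Agilent array at 25 °C for 1 h and then washed off. The array had been made double-stranded by primer extension with Cy5-dUTP and blocked with 2% BSA. The proteins were transcription factors fused N-terminally to polyhistidine and DsRed, expressed in E. coli BL21-CodonPlus and purified on Ni–NTA. The binding signal is per-feature fluorescence intensity (arbitrary units) from an Axon 4000B scanner.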
On to “ATATCATAATTTGAATCGTCATGTATTTGTGTGCACGTACCGGAGTCACCTAGTGCAG”, for which the binding signal was 8080 fluorescence intensity (a.u.).
For the sequence “ACTACTTCCTCTGTTTCTAAATATTTGACGACGTTGATTTCGGAGTCACCTAGTGCAG”, the binding signal is 8050 fluorescence intensity (a.u.).
In the case of “TAATGGCTCACCTCGTTTTGCGTATTTTCCCAATCTTCTCCGGAGTCACCTAGTGCAG”, the binding signal is 11100 fluorescence intensity (a.u.).
Consider “GATTCTTTCTCTCTCTTTCAGATTCGTTGTCTCACTGACACGGAGTCACCTAGTGCAG”, for which the binding signal was 8290 fluorescence intensity (a.u.).
As for “CTTGTGGCATCATTTTTGCAGTTTCGTCCATGTCCGACGTCGGAGTCACCTAGTGCAG”, the figure is 9070 fluorescence intensity (a.u.); as for “ACTGATGAAATGGCGGTATTTTTATAGGCGGGGTGAGTGGCGGAGTCACCTAGTGCAG”, 9560 fluorescence intensity (a.u.); as for “TTCTTCTGCTCTTTCTTCTTCCTTTGGCACTGGAGGCGGCCGGAGTCACCTAGTGCAG”, 11300 fluorescence intensity (a.u.).
Next, “GTGCACCACCTGCACCGCCTCGTGCTCACGAAACCCGATCCGGAGTCACCTAGTGCAG”: 8230 fluorescence intensity (a.u.).
Next, “ACACGTGTGCATGCAACTATATGGTCGTTTTATTTTATTTCGGAGTCACCTAGTGCAG”: 10100 fluorescence intensity (a.u.); “CTATTTTATGTTTTTTACATGCGTTTTACAGGGTTGCTTACGGAGTCACCTAGTGCAG”: 8720 fluorescence intensity (a.u.); “GCATTCCTTGCTGTTGCATACCCTTCTCACCCCTTGCCTTCGGAGTCACCTAGTGCAG”: 9460 fluorescence intensity (a.u.).
For the sequence “CGACGCATGGGCCAACTCACTGTCCGCCATCCACCAGTTGCGGAGTCACCTAGTGCAG”, the binding signal is 8120 fluorescence intensity (a.u.).
As for “GCCCGCCAGTCAAACCTCGAGGGAGCTTTGACCAGTCAACCGGAGTCACCTAGTGCAG”, the figure is 10400 fluorescence intensity (a.u.); as for “CCCACTAACTTATGGCTTTTCCCATCCGTGCTATATCCCTCGGAGTCACCTAGTGCAG”, 9270 fluorescence intensity (a.u.); as for “GGCCGAGCCGCCCGTTTCGTTCTATCAGACTCTTCTTTATCGGAGTCACCTAGTGCAG”, 12200 fluorescence intensity (a.u.).
Next, “GAAGTGATGAATATATTAAACTGGTTTGGCTATTATTTCCCGGAGTCACCTAGTGCAG”: 8360 fluorescence intensity (a.u.).
As for “GCATTTTTGAACTTCGACACAGTCTTCAATATACTACTTTCGGAGTCACCTAGTGCAG”, the binding signal was 9230 fluorescence intensity (a.u.).
With “AATTTGCCTAATCTCATTCGAAACTGTTCAAATTTCAATTCGGAGTCACCTAGTGCAG”, the binding signal is 8200 fluorescence intensity (a.u.).
On to “TCCCCTTTTGTTGACTTACCAGAATTCGCCTTATTCTGTTCGGAGTCACCTAGTGCAG”, for which the binding signal was 14900 fluorescence intensity (a.u.).
Next, “TGCCTCTTGTCTAATTCCTATGGAACACTTCATTTATTTACGGAGTCACCTAGTGCAG”: 11400 fluorescence intensity (a.u.).
As for “AATGTGTGAAACTTTCCCTTGTTCCTAGTCCATTTCACTACGGAGTCACCTAGTGCAG”, the figure is 9460 fluorescence intensity (a.u.).
As for “TCTGTTTTCGTCCATAAGTGCTACAGTTTGTGATTTGTCTCGGAGTCACCTAGTGCAG”, the figure is 8280 fluorescence intensity (a.u.); as for “GTATCATTTTTGTGCGGTTTCCTTTTTTTTGGCGCAATATCGGAGTCACCTAGTGCAG”, 8070 fluorescence intensity (a.u.); as for “GGGCCACGATGGTGTTGTACCTCGCCGTCTTCCTGCTCGGCGGAGTCACCTAGTGCAG”, 8100 fluorescence intensity (a.u.).
For “TCCTCATCGCATCGCATCGCATCACCTCGCACGGGCGCGCCGGAGTCACCTAGTGCAG”, the binding signal is 9030 fluorescence intensity (a.u.).
As for “CCAAAGCCTGCACACATAACATAAGCTCCGGCATCATCTCCGGAGTCACCTAGTGCAG”, the figure is 9310 fluorescence intensity (a.u.); as for “AGACCGCACGTGACACTGCAGCTGGGACCCACCATTTCCCCGGAGTCACCTAGTGCAG”, 9350 fluorescence intensity (a.u.).
In the case of “TTAGGGTCTTTTATGTAGTAGTATCTGTTATCATTTCTGGCGGAGTCACCTAGTGCAG”, the binding signal is 8850 fluorescence intensity (a.u.).
In the case of “TCTTGGGCCTTGGTATTGTTGCTCCAAGATCTTTGCCACTCGGAGTCACCTAGTGCAG”, the binding signal is 9210 fluorescence intensity (a.u.).
As for “TTACCCCATTAATCACTTTTTGTTGAAATTTCTCTCTATTCGGAGTCACCTAGTGCAG”, the figure is 9420 fluorescence intensity (a.u.).
Take “GTCCATCCGCGCGCACGATCTCACCACCACACGATTGAGTCGGAGTCACCTAGTGCAG”: the binding signal was 10300 fluorescence intensity (a.u.).
As for “GCACGTTCCCGTCTAACCCTGCTATCTTTTCACTCATATCCGGAGTCACCTAGTGCAG”, the figure is 12600 fluorescence intensity (a.u.); as for “CTTGCGCCCTGGGGCCCCGCGCGCCGCCGACACCCTCCTCCGGAGTCACCTAGTGCAG”, 8500 fluorescence intensity (a.u.); as for “AGCTGATGTTTCTCATTAACTTTACGCTACTGCTACCGCACGGAGTCACCTAGTGCAG”, 9010 fluorescence intensity (a.u.).
Next, “GGTCTTTTTTCATGTGTATTCTTGTTGGATCTTCTGATATCGGAGTCACCTAGTGCAG”: 8130 fluorescence intensity (a.u.); “GAGCGCGGAGCCAACCTAATTTTTATCTCCATCAGTTTCACGGAGTCACCTAGTGCAG”: 8610 fluorescence intensity (a.u.).
As for “CCACTTGTCACCGTGCTTCTCCAATCTCTATCATCGTGCGCGGAGTCACCTAGTGCAG”, the figure is 9170 fluorescence intensity (a.u.); as for “GAGTCGTTGTGTGCGTGTGTGGGAAAGGAGAGGGAGAAAGCGGAGTCACCTAGTGCAG”, 8040 fluorescence intensity (a.u.); as for “TAAATTCCTATATTGTTTCTTTCCTATTTGTATAGTCGCACGGAGTCACCTAGTGCAG”, 8500 fluorescence intensity (a.u.).
“GTATGTTATGGGCTTATTCGTGGGTACGCAAGTCTAGTATCGGAGTCACCTAGTGCAG”: the binding signal is 8860 fluorescence intensity (a.u.).
Next, “CCAAAATTTACTCCTTTTTCACTGCTTTGTTGCCTTGTTACGGAGTCACCTAGTGCAG”: 10800 fluorescence intensity (a.u.); “TGTCTAATCCTTTTTGCTGCCATTCTGTTGTGAACTGGAACGGAGTCACCTAGTGCAG”: 12000 fluorescence intensity (a.u.).
